Results on 1 molecule are retold here after paper PMC9179855.

Results are given in words; binding and its absence hold for the method and conditions named. In cells and extracts the contact can be indirect. Binding can be weak; no strength is given.

The test addresses MUC1 C-terminal subunit (MUC1-C) (human (endogenous in BT-549)). The test can be described thus: co-IP; nuclear lysates of BT-549 cells stimulated with IFN-β for 4 h; DNA digested with 20 U/mL DNase for 30 min at 37 °C; anti-MUC1-C (#MA5-11202) at 4 °C overnight, Dynabeads Protein G for 2 h at 4 °C; control IgG; precipitates immunoblotted. On the technique in general: Immunoblotting shows a protein as a band on a membrane.

B1: IRF1 (protein, UniProt P10914 1-325)
chain: MPITRMRMRPWLEMQINSNQIPGLIWINKEEMIFQIPWKHAAKHGWDINKDACLFRSWAIHTGRYKAGEKEPDPKTWKANFRCAMNSLPDIEEVKDQSRNKGSSAVRVYRMLPPLTKNQRKERKSKSSRDAKSKAKRKSCGDSSPDTFSDGLSSSTLPDDHSSYTVPGYMQDLEVEQALTPALSPCAVSSTLPDWHIPVEVVPDSTSDLYNFQVSPMPSTSEATTDEDEEGKLPEDIMKLLEQSEWQPTNVDGKGYLLNEPGVQPTSVYGDFSCKEEPEIDSPGGDIGLSLQRVFTDLKNMDATWLDSLLTPVRLPSIQAIPCAP
For B1, the binding result was “binds”.
